This experiment deals with Plectin on the cell surface of MIAPaCa2 cells (UniProt Q15149). Nature of the experiment: dark field microscopy of fixed MIAPaCa2 cells with 20 nM peptide-modified gold nanoparticles.

By UniProt entry, the sequences of proteins in these tests, tags left out.
UniProt Q15149: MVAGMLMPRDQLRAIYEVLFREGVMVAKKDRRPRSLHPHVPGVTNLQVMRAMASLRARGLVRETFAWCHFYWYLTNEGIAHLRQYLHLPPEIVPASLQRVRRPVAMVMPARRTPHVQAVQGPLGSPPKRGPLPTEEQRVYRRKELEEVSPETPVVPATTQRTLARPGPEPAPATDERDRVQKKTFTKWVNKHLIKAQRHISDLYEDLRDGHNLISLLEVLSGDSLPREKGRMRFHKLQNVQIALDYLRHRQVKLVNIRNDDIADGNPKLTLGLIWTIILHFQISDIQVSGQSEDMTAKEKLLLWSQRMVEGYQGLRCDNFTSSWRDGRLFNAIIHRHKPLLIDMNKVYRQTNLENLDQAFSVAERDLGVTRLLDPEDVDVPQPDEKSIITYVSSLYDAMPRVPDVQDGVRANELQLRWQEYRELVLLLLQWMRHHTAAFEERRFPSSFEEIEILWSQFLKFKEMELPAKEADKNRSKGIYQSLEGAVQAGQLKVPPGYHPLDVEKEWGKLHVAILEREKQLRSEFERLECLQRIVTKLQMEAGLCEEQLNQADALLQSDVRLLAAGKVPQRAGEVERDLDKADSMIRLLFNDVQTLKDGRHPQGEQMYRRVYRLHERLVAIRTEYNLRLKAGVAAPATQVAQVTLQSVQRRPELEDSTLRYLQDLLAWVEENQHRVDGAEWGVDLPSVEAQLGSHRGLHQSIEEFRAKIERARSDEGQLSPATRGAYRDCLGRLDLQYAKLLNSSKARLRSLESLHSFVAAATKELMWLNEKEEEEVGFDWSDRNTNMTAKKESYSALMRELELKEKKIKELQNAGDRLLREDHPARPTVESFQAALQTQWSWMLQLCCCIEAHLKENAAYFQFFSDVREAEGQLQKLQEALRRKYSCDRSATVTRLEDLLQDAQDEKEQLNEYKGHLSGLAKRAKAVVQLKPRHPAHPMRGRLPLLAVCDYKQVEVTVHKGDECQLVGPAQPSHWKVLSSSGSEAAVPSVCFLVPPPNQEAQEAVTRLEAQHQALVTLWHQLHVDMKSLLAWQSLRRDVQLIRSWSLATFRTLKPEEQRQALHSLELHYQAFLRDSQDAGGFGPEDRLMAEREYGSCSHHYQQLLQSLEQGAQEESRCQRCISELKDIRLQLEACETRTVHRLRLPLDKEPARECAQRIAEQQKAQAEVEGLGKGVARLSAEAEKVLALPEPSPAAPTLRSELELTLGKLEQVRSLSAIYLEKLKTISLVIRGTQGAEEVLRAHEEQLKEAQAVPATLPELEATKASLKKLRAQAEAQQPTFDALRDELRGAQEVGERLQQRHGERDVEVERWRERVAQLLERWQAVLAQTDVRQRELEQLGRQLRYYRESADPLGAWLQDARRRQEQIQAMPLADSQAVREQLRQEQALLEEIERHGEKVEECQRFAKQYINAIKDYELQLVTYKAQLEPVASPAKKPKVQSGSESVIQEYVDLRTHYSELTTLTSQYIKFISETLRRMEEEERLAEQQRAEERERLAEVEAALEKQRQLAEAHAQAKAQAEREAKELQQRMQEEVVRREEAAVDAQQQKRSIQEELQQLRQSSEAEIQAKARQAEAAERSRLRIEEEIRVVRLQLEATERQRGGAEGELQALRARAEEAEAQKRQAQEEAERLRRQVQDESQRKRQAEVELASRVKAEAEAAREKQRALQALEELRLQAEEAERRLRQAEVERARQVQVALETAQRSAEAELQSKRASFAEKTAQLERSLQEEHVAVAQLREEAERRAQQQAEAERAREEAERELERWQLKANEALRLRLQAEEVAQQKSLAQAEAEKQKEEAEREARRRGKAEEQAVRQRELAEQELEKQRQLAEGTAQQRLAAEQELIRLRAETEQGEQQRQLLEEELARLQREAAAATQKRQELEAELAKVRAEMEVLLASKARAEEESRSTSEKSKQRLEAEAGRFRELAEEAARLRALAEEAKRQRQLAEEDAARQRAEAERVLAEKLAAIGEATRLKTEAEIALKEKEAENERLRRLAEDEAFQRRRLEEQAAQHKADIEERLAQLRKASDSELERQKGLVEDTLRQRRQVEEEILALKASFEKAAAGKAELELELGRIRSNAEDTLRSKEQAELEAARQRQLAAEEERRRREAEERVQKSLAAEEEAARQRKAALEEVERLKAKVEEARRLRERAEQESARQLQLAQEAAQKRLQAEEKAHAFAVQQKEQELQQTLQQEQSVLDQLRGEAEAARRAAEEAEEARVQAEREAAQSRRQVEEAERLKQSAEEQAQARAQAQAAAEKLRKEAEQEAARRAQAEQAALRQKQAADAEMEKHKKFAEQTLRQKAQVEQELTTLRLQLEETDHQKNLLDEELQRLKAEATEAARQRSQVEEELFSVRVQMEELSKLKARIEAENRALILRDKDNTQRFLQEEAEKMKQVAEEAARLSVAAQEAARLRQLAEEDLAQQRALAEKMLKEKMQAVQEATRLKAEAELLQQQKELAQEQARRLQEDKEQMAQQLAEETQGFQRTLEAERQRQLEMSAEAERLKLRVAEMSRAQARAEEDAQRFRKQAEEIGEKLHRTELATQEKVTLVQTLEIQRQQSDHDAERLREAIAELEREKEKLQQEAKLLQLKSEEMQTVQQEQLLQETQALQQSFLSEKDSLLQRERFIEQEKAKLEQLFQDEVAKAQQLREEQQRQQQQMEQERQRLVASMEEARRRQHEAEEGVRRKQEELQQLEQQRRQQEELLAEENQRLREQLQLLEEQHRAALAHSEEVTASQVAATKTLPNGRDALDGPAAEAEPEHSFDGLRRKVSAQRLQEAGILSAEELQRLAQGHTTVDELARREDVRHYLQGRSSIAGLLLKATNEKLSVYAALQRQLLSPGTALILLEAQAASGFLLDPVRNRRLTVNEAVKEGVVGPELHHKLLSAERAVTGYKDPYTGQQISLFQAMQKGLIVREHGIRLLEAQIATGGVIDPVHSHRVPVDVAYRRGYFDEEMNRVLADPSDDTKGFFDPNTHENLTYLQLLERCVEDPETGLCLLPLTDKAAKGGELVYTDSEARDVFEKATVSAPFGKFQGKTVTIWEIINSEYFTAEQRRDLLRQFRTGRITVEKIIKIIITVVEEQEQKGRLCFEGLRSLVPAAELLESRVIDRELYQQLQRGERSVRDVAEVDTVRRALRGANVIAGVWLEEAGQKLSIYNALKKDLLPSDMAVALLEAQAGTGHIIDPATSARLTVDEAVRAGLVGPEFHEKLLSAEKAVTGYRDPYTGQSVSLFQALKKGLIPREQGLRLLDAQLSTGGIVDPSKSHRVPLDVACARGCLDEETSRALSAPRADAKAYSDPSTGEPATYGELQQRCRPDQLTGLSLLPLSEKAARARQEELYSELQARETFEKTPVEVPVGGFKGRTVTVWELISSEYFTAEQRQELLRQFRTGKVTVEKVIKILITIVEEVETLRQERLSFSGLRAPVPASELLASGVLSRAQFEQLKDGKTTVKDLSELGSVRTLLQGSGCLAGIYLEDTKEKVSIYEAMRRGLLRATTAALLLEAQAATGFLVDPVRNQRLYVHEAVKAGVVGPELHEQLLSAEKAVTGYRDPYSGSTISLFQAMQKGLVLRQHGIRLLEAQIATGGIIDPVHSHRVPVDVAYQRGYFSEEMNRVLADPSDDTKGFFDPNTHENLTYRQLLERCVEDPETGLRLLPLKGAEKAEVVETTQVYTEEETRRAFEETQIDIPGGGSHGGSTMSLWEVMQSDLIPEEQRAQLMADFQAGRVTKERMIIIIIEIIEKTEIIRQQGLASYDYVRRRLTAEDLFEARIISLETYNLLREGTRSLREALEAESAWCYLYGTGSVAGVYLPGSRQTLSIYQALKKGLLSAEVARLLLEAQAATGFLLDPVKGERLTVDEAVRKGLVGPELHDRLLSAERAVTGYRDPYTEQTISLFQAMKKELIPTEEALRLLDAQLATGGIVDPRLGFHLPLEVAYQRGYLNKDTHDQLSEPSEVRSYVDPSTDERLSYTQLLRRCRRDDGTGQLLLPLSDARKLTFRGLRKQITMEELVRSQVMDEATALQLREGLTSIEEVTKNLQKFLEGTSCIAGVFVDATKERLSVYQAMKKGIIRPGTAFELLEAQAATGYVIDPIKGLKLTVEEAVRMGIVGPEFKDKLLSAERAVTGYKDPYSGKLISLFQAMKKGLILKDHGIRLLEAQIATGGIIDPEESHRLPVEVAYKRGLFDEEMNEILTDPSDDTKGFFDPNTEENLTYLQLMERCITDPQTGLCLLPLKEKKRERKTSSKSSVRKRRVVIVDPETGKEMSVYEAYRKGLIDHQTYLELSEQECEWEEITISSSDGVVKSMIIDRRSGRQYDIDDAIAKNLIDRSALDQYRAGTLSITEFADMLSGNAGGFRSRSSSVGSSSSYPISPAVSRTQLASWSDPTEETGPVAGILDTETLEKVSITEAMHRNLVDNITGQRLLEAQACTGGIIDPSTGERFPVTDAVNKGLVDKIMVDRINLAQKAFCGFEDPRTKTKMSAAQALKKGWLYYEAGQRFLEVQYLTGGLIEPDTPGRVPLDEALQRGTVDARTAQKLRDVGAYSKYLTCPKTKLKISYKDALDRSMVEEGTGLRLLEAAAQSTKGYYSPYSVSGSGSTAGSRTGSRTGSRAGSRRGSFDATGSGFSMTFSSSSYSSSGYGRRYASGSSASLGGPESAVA

These are yes or no findings as the source states them, for the method shown. Some entries that bind do so weakly or less than the wild type.

KTLLPTP (amidated at the C-terminal): the binding entry is “binds”.
In the case of KTLLPTPGGC (amidated at the C-terminal), the binding entry is “binds”.

Values taken from patent publication US20160258940A1 (IMRA AMERICA, published 2016).
